This is an account of results in the supplement of paper PMC10849652.

By UniProt entry, the sequences of proteins in these tests, tags left out. Where a name states a change or a piece, a line headed by the entry shows the natural chain unless it says otherwise.
UniProt A6NHQ2: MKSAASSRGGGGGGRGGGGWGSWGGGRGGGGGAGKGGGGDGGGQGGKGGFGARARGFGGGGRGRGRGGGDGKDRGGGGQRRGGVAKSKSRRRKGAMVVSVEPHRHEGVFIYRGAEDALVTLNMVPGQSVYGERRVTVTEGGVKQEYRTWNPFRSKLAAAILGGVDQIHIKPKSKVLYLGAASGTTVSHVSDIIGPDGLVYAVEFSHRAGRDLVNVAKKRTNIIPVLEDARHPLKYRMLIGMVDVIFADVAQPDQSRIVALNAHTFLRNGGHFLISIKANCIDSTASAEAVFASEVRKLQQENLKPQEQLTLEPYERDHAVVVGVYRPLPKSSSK
UniProt Q9UKT4: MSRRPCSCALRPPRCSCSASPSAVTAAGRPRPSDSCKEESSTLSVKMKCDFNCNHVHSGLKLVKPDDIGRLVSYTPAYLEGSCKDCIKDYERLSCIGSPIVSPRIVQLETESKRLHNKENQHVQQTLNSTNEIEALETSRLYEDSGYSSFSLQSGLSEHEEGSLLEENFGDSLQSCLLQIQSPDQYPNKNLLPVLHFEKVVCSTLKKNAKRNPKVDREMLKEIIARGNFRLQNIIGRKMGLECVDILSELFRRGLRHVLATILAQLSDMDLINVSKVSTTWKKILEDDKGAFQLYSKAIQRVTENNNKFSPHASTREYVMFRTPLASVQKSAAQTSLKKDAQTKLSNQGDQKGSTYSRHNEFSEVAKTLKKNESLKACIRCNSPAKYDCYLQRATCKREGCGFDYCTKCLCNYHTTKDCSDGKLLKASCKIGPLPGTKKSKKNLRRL
UniProt Q9NSD9: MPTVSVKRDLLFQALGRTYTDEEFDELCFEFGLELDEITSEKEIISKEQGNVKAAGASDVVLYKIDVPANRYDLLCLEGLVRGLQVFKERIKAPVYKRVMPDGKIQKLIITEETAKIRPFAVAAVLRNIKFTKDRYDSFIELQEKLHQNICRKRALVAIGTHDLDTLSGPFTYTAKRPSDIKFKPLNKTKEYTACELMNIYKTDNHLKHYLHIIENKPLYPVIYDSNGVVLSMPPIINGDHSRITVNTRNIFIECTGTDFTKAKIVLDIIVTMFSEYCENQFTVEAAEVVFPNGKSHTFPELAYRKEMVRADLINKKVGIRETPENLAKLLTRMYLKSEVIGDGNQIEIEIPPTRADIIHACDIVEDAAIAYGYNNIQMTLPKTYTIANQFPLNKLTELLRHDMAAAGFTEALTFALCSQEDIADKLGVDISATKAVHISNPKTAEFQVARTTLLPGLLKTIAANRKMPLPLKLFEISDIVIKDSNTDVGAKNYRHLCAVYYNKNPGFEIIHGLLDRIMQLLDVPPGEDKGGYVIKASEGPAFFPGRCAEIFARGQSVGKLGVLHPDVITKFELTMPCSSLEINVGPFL
UniProt O75955: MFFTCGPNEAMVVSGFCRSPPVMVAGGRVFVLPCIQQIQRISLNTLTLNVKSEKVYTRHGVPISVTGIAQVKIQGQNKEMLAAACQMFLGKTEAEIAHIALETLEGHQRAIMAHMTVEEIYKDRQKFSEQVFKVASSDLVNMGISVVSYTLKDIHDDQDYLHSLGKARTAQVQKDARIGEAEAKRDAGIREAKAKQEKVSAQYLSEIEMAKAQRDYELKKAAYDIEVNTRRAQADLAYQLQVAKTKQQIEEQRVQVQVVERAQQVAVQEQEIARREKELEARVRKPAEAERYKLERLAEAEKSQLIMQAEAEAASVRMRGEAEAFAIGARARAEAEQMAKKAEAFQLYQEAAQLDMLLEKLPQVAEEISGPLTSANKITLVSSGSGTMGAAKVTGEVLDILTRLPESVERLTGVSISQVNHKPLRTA
UniProt Q8N0W3: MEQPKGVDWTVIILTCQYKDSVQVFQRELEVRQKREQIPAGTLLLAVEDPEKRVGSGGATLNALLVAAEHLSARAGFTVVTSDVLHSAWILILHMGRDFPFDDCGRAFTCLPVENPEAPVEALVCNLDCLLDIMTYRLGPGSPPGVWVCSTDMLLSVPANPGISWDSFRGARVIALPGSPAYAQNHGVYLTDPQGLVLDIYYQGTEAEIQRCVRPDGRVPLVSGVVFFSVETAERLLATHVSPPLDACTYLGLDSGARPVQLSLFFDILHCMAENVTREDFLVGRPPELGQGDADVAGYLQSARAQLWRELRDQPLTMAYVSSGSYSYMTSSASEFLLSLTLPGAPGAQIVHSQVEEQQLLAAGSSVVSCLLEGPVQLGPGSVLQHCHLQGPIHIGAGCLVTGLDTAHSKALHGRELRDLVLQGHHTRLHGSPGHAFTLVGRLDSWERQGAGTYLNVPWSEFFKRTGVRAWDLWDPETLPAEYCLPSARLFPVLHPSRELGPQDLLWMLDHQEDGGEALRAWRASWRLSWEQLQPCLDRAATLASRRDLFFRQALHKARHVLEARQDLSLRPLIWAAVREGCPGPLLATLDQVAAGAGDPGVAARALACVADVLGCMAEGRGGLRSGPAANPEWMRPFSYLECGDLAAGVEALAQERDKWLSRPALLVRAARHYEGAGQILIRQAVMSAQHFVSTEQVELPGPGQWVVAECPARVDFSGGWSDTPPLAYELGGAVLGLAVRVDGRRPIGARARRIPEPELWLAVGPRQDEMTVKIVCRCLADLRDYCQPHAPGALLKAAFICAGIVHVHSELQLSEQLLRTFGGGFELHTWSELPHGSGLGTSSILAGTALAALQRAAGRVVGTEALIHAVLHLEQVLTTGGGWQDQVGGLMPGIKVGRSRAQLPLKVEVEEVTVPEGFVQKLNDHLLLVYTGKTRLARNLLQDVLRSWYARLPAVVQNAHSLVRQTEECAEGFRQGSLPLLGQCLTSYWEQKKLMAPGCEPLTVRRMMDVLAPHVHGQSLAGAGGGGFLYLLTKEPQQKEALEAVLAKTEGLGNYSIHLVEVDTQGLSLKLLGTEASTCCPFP
UniProt Q8NEZ5: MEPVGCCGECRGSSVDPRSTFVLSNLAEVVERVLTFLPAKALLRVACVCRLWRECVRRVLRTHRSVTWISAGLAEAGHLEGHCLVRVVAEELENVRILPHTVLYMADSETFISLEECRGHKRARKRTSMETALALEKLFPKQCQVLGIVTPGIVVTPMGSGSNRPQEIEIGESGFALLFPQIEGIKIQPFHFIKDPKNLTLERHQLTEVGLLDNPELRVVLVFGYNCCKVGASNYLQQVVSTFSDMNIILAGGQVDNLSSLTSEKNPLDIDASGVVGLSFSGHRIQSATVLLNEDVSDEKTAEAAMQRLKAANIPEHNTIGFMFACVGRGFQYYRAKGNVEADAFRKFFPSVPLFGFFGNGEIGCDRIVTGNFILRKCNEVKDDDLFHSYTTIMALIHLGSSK
UniProt Q9H479: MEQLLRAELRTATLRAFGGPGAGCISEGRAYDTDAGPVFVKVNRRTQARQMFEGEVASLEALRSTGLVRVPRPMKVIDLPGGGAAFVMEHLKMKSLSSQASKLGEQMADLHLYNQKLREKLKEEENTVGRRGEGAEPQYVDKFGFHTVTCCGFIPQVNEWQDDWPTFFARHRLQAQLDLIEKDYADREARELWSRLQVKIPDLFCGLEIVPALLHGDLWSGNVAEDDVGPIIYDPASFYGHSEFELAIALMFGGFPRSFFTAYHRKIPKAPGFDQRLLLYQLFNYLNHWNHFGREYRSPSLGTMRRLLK
UniProt P12318: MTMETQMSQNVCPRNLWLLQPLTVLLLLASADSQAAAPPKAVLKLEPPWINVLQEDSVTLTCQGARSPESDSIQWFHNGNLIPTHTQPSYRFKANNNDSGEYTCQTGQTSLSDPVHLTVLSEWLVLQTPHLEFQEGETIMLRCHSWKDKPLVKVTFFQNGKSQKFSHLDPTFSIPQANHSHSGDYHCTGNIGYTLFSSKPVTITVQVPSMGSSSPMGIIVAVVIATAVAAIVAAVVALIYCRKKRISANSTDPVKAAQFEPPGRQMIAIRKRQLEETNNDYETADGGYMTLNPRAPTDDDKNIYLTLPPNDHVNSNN
UniProt Q9HA64: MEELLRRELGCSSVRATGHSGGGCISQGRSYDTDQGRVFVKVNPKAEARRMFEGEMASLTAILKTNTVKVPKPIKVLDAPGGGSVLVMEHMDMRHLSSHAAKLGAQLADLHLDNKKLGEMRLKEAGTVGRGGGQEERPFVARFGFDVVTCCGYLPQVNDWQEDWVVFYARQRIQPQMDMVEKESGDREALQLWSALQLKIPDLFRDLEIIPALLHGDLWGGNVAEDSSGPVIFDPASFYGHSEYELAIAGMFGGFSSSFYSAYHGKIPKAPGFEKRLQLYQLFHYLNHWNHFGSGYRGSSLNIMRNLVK
UniProt O95302: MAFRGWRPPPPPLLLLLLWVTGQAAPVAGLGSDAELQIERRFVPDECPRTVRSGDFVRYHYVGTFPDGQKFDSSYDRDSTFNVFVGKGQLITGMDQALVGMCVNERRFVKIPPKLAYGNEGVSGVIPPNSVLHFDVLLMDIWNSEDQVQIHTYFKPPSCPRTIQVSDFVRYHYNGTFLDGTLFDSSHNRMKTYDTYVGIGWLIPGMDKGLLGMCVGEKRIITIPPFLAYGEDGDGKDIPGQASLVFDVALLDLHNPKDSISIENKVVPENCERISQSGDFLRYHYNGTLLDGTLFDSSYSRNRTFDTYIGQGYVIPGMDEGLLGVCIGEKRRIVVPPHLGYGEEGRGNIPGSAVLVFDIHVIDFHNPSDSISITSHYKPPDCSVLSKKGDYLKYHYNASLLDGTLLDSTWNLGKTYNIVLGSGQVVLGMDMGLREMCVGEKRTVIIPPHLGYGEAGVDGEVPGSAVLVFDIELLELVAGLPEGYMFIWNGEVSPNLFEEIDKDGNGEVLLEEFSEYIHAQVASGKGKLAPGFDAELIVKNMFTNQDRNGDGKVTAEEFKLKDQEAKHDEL
UniProt Q13451: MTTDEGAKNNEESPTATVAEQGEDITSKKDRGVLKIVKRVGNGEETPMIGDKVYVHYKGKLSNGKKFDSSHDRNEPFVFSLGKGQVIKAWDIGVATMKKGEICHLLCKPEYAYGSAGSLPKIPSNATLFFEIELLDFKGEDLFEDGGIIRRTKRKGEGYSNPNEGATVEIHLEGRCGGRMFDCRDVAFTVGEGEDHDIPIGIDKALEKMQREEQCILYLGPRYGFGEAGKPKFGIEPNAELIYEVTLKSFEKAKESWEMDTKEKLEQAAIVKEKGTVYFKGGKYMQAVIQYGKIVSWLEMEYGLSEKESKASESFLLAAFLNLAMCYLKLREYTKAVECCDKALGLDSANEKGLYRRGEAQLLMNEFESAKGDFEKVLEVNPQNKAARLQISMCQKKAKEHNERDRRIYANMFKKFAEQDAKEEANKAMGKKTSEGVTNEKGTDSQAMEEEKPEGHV
UniProt Q6P4F2: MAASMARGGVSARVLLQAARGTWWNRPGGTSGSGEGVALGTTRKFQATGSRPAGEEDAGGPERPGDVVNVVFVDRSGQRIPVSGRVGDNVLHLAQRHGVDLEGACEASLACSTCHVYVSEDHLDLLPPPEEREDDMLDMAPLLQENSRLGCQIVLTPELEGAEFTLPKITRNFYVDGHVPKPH
UniProt Q9Y421: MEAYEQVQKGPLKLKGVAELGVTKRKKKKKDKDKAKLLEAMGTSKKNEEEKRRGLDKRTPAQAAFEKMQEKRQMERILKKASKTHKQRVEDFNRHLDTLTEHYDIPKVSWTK
UniProt Q8N3X1: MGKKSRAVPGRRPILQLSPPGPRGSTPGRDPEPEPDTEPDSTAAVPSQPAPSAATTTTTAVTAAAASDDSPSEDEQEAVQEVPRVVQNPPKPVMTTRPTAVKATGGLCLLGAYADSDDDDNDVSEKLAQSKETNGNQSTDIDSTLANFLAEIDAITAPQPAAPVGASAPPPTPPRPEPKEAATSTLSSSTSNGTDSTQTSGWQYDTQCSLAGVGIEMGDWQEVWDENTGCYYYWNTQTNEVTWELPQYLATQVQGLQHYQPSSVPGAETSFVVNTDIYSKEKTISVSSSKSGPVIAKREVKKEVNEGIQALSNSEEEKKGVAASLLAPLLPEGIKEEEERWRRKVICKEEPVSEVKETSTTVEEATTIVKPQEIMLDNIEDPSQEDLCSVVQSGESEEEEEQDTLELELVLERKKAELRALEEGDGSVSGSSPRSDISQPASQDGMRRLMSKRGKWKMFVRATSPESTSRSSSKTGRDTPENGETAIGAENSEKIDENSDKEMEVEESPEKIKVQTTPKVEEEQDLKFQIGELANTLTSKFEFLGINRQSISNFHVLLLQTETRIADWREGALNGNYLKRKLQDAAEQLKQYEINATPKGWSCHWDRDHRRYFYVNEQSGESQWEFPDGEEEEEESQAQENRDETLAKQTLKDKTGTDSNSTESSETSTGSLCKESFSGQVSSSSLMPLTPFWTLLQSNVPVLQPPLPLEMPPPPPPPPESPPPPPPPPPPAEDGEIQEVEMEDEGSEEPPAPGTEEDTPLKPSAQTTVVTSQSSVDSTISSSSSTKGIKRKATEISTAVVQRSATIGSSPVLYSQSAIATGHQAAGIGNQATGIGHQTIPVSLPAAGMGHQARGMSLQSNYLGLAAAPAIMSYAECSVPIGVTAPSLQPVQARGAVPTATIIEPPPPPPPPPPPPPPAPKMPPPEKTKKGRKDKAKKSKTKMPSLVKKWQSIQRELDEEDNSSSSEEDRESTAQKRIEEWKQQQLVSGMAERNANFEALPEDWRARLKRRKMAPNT

Some of the results follow.

Compound in the first test: CCN(CCCOc1ccc2c(Nc3cc(CC(=O)Nc4cccc(F)c4)[nH]n3)ncnc2c1)CCOP(=O)(O)O [barasertib]
The test is described as follows: log2 fold change, soluble protein after heating vs DMSO (PISA); higher = thermal stabilisation; K562 cells, 10 uM, 30 min; active = over 0.2 and 3.5 SD of the protein, either way, in both replicates (recomputed). The method in brief:
(§1)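 For each measurement, 10 μM compound was applied for 30 min to K562 cells at 2×10^6 cells/mL. Aliquots were heated for 3 min across 48°C-58°C, pooled, and extracted in PBS with 0.5% NP-40 at 4°C; the supernatant after 21,000xg for 90 min was soluble protein. This was quantified by TMTpro 16plex LC-MS/MS with channel sums equalised, and thermal stability was reported relative to control samples from duplicates, on a log2 fold-change scale.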
Turning to FBLL1 (UniProt A6NHQ2), the log2 fold change was inactive: -0.069.
Still for that read-out and setting: for FBXO5 (UniProt Q9UKT4) the value was inactive: 0.022.
Same read-out and setting: next, FARSB (UniProt Q9NSD9): inactive: 0.027; FLOT1 (UniProt O75955): inactive: 0.022; FCSK isoform 2 (UniProt Q8N0W3): inactive: 0.024.
Still for that read-out and setting: for FBXO22 (UniProt Q8NEZ5) the value was inactive: 0.011; for FN3K (UniProt Q9H479), inactive: -0.019.
FCGR2A (UniProt P12318): the log2 fold change was inactive: 0.069.
Consider FN3KRP (UniProt Q9HA64), for which the log2 fold change was inactive: 0.018.
Same read-out and setting: next, FAM98A (UniProt Q8NCA5): inactive: -0.027.
Still for that read-out and setting: for FKBP9 (UniProt O95302) the value was inactive: 0.009; for FAU (UniProt P62861), inactive: -0.071; for FKBP5 (UniProt Q13451), inactive: 0.095.
Same read-out and setting: for FDX2 (UniProt Q6P4F2) the value was inactive: -0.018.
With FAM32A (UniProt Q9Y421), the log2 fold change was inactive: -0.086.

Compound in a further test: CC[C@@H]1C(=O)N(C)c2cnc(Nc3ccc(C(=O)NC4CCN(C)CC4)cc3OC)nc2N1C1CCCC1
The description is as above. Summed up:
as §1
For the target FDX1 (UniProt P10109), the log2 fold change is inactive: 0.013.
Consider FBXL12 (UniProt Q9NXK8), for which the log2 fold change was inactive: -0.087.
The same measure, in the same setting: for FKBPL (UniProt Q9UIM3) the value was inactive: -0.033.
Still for that read-out and setting: for FCGR2C (UniProt P31995) the value was inactive: 0.102; for FANCB (UniProt Q8NB91), inactive: 0.014; for FIP1L1 (UniProt Q6UN15), inactive: 0.001.
As to FLVCR1 (UniProt Q9Y5Y0), the log2 fold change was inactive: 0.12.
On the same count and under the same terms, for FAM49B (UniProt Q9NUQ9) the value was inactive: 0.003; for FAM210A (UniProt Q96ND0), inactive: 0.027.
The same measure, in the same setting: for FBXO30 (UniProt Q8TB52) the value was inactive: -0.071; for FKBP2 (UniProt P26885), inactive: -0.02.
On to FKBP15 (UniProt Q5T1M5), for which the log2 fold change was inactive: 0.043.
On the same count and under the same terms, for FAR1 (UniProt Q8WVX9) the value was inactive: -0.035; for FH (UniProt P07954), inactive: 0.019; for FLII (UniProt Q13045), inactive: -0.019.
Same read-out and setting: for FNBP4 isoform 2 (UniProt Q8N3X1) the value was inactive: 0.052; for FAM98B (UniProt Q52LJ0), inactive: 0.04.
The same measure, in the same setting: next, FBXL20 (UniProt Q96IG2): inactive: 0.054; FBXL18 isoform 4 (UniProt Q96ME1): inactive: -0.013; FLYWCH2 (UniProt Q96CP2): inactive: 0.026.
As for FAM76B (UniProt Q5HYJ3), the log2 fold change is inactive: 0.119.
The same measure, in the same setting: for FASN (UniProt P49327) the value was inactive: -0.02.
With FKBP1A (UniProt P62942), the log2 fold change is inactive: -0.008.
Still for that read-out and setting: next, FBLL1 (UniProt A6NHQ2): inactive: 0.229.
On to FBXO5 (UniProt Q9UKT4), for which the log2 fold change was inactive: -0.005.
Still for that read-out and setting: next, FARSB (UniProt Q9NSD9): inactive: -0.017; FLOT1 (UniProt O75955): inactive: 0.092; FCSK isoform 2 (UniProt Q8N0W3): inactive: 0.014.
For the target FBXO22 (UniProt Q8NEZ5), the log2 fold change was inactive: -0.034.
Take FN3K (UniProt Q9H479): the log2 fold change was inactive: 0.019.
Still for that read-out and setting: next, FCGR2A (UniProt P12318): inactive: 0.201.
On the same count and under the same terms, for FN3KRP (UniProt Q9HA64) the value was inactive: 0.009.
Same read-out and setting: next, FAM98A (UniProt Q8NCA5): inactive: 0.17; FKBP9 (UniProt O95302): inactive: 0.025.
In the case of FAU (UniProt P62861), the log2 fold change was inactive: 0.227.
The same measure, in the same setting: next, FKBP5 (UniProt Q13451): inactive: -0.101; FDX2 (UniProt Q6P4F2): inactive: -0.168.
On to FAM32A (UniProt Q9Y421), for which the log2 fold change is inactive: 0.136.

Compound in the next test: CC[C@@H]1C(=O)N(C)c2cnc(Nc3ccc(C(=O)N[C@H]4CC[C@H](N5CCN(CC6CC6)CC5)CC4)cc3OC)nc2N1C(C)C [volasertib]
Described as above. Summed up:
as §1
Regarding FDX1 (UniProt P10109), the log2 fold change is inactive: -0.021.
Same read-out and setting: for FBXL12 (UniProt Q9NXK8) the value was inactive: -0.083; for FKBPL (UniProt Q9UIM3), inactive: -0.075; for FCGR2C (UniProt P31995), inactive: 0.052.
Same read-out and setting: for FANCB (UniProt Q8NB91) the value was inactive: 0.04; for FIP1L1 (UniProt Q6UN15), inactive: 0.016.
On the same count and under the same terms, next, FLVCR1 (UniProt Q9Y5Y0): inactive: 0.064.
Regarding FAM49B (UniProt Q9NUQ9), the log2 fold change was inactive: 0.01.
On the same count and under the same terms, next, FAM210A (UniProt Q96ND0): inactive: 0.007; FBXO30 (UniProt Q8TB52): inactive: -0.159; FKBP2 (UniProt P26885): inactive: 0.01.
On the same count and under the same terms, next, FKBP15 (UniProt Q5T1M5): inactive: -0.201.
Still for that read-out and setting: for FAR1 (UniProt Q8WVX9) the value was inactive: -0.207.
For the target FH (UniProt P07954), the log2 fold change is inactive: 0.134.
Same read-out and setting: next, FLII (UniProt Q13045): inactive: -0.163.
Turning to FNBP4 isoform 2 (UniProt Q8N3X1), the log2 fold change is inactive: 0.077.
On the same count and under the same terms, next, FAM98B (UniProt Q52LJ0): inactive: -0.019; FBXL20 (UniProt Q96IG2): inactive: 0.008; FBXL18 isoform 4 (UniProt Q96ME1): inactive: -0.066.
Same read-out and setting: next, FLYWCH2 (UniProt Q96CP2): inactive: 0.052.
Still for that read-out and setting: next, FAM76B (UniProt Q5HYJ3): inactive: -0.139; FASN (UniProt P49327): inactive: -0.089; FKBP1A (UniProt P62942): inactive: -0.006.
Turning to FBLL1 (UniProt A6NHQ2), the log2 fold change was inactive: 0.083.
Still for that read-out and setting: for FBXO5 (UniProt Q9UKT4) the value was inactive: -0.145.
The same measure, in the same setting: for FARSB (UniProt Q9NSD9) the value was inactive: -0.111.
The same measure, in the same setting: next, FLOT1 (UniProt O75955): inactive: 0.235; FCSK isoform 2 (UniProt Q8N0W3): inactive: 0.043.
As for FBXO22 (UniProt Q8NEZ5), the log2 fold change is inactive: -0.106.
Take FN3K (UniProt Q9H479): the log2 fold change is inactive: 0.03.
Take FCGR2A (UniProt P12318): the log2 fold change was inactive: -0.035.
On the same count and under the same terms, for FN3KRP (UniProt Q9HA64) the value was inactive: 0.073; for FAM98A (UniProt Q8NCA5), inactive: 0.07; for FKBP9 (UniProt O95302), inactive: -0.029.
On the same count and under the same terms, for FAU (UniProt P62861) the value was inactive: 0.341; for FKBP5 (UniProt Q13451), inactive: -0.432.
Still for that read-out and setting: for FDX2 (UniProt Q6P4F2) the value was inactive: 0.056; for FAM32A (UniProt Q9Y421), inactive: 0.194.
